Laboratory results as given in doi:10.1101/2023.12.11.571118.
Construct, isoform or probe ends are uncertain for at least one entry. For part of these data: No signal at the amounts used counts as a negative. For part of these data: At least one verdict was read from the data and is not stated in words by the source.

Chains of the proteins cited; added tags and fusions are not shown. Lines headed by an entry give the natural chain unless they say otherwise; changes in a name come on top.
UniProt Q949N0: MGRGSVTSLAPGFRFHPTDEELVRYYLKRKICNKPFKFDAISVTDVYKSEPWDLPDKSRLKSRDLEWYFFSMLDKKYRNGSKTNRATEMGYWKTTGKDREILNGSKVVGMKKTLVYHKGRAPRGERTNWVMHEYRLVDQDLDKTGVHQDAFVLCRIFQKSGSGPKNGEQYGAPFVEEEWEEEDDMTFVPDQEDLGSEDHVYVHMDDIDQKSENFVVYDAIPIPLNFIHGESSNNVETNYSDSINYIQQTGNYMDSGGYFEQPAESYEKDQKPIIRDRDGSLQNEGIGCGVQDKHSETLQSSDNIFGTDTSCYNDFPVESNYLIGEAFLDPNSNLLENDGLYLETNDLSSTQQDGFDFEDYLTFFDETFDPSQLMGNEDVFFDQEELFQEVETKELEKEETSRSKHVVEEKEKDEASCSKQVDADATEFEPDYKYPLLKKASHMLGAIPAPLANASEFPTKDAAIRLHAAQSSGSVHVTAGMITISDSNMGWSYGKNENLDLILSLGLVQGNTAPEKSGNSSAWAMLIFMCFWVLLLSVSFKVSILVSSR
UniProt Q84K00: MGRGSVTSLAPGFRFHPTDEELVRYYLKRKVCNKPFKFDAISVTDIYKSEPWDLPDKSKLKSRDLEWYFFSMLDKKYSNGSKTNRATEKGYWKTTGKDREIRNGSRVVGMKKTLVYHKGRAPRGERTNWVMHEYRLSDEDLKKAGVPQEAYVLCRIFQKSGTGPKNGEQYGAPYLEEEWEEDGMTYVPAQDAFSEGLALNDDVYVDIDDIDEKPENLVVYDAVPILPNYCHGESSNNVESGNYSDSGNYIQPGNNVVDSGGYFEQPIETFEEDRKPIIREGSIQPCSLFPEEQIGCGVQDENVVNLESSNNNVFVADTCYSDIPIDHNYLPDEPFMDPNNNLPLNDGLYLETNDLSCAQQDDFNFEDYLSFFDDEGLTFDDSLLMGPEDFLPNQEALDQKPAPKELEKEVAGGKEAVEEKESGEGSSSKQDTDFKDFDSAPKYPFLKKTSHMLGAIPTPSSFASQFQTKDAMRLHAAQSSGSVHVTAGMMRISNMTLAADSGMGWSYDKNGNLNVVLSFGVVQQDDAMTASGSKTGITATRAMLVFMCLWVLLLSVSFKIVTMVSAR

Experiments:
[1] = biological target: MBP-NAC53 (Arabidopsis thaliana) (UniProt Q949N0); experiment: EMSA
[2] = system: MBP-NAC53 ΔRM (Arabidopsis thaliana); experiment: EMSA
[3] = biological target: MBP-NAC78 (Arabidopsis thaliana) (UniProt Q84K00); experiment: EMSA
[4] = system: MBP-NAC78 ΔRM (Arabidopsis thaliana); experiment: EMSA
[5] = biological target: MBP-NAC53 (Arabidopsis thaliana) (UniProt Q949N0); experiment: competition with a labelled probe; conditions: EMSA
[6] = biological target: MBP-NAC78 (Arabidopsis thaliana) (UniProt Q84K00); experiment: competition with a labelled probe; conditions: EMSA
[7] = 25-100X unlabelled competitor vs LHCa3 probe
[8] = 25-100X unlabelled competitor vs PSAD1 probe

Row | Sequence | binding result [1] | binding result [2] | binding result [3] | binding result [4] | binding result [5, 7] | binding result [6, 7] | binding result [5, 8] | binding result [6, 8]
1 | GTTTCTTAATGCCCAAGGATGAAGG (double strand) [PRCE_LHCA3 probe] | binds | no binding | binds | no binding |  |  |  | 
2 | GTTTCTTAATTTTTTAGGATGAAGG (double strand) [PRCE_LHCA3 mut competitor] |  |  |  |  | no binding | no binding |  | 
3 | TTTGATTCAGGCCCAAGTTTCAATC (double strand) [PRCE_PSAD1 probe] | binds | no binding | binds | no binding |  |  |  | 
4 | TTTGATTCAGTTTTTAGTTTCAATC (double strand) [PRCE_PSAD1 mut competitor] |  |  |  |  |  |  | no binding | no binding
